Measured values from article PMC12170339, “Cryo-EM structure of the NDH–PSI–LHCI supercomplex from Spinacia oleracea” (Nature Structural & Molecular Biology, 2025).
No constants are given. Whether binding was seen depends on the method and setting. Some binding calls cover weakened binding; strength is not graded here.

Molecular target: T1, NdhD (S. oleracea) (UniProt Q9M3J0)
T1 sequence: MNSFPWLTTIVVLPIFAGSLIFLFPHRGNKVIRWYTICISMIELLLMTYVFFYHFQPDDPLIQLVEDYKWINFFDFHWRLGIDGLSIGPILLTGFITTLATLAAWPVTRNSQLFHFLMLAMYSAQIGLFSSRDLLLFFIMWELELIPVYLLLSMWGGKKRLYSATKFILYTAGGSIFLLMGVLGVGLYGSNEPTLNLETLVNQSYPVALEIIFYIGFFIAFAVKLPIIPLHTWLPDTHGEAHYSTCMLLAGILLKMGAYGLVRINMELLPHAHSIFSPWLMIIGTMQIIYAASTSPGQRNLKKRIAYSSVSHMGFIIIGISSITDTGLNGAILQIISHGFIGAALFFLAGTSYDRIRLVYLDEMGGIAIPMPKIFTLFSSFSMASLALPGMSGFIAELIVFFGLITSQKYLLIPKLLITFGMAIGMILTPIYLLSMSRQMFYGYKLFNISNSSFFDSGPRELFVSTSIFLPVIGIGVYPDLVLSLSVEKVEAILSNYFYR
Test: cryo-EM structure; single-particle cryo-EM of the endogenous NDH–PSI–LHCI-2 supercomplex co-purified from spinach stromal lamellae in t-PCCαM; buffer A: 30 mM HEPES pH 7.8, 2 mM MgCl2, 2 mM KCl, 0.5 mM Na2-EDTA, 100 mM NaCl, 2 mM DTT, 0.04% t-PCCαM; 38,385 particles; 3.0–3.3 Å; both purified

B1: NdhB (protein, UniProt A0ABD8EXD1 1-510)
chain: MIWHVQNENFILDSTRIFMKAFHLLLFDGSLIFPECILIFGLILLLMIDSTSDQKDIPWLYFISSTSLVMSITALLFRWREEPMISFSGNFQTNNFNEIFQFLILLCSTLCIPLSVEYIECTEMALTEFLLFILTATLGGMFLCGANDLITIFVAPECFSLCSYLLSGYTKKDVRSNEATTKYLLMGGASSSILVHGFSWLYGSSGGEIELQEIVNGLINTQMYNSPGISIALIFITVGIGFKLSPAPSHQWTPDVYEGSPTPVVAFLSVTSKVAASASATRIFDIPFYFSSNEWHLLLEILAILSMILGNLIAITQTSMKRMLAYSSIGQIGYVIIGIIVGDSNDGYASMITYMLFYISMNLGTFACIVLFGLRTGTDNIRDYAGLYTKDPFLALSLALCLLSLGGLPPLAGFFGKIYLFWCGWQAGLYFLVLIGLLTSVLSIYYYLKIIKLLMTGRNQEITPHVRNYRRSPLRSKNSIEFSMIVCVIASTIPGISMNPIITIAQDTLF
With B1 the binding was “binds”.
